From PMC7819943, “Rice protein-binding microarrays: a tool to detect cis-acting elements near promoter regions in rice”
This is one part of the list.

Target: T1, OsSMF1 (Oryza sativa, UniProt Q6ZLB0 1-436)
T1 sequence: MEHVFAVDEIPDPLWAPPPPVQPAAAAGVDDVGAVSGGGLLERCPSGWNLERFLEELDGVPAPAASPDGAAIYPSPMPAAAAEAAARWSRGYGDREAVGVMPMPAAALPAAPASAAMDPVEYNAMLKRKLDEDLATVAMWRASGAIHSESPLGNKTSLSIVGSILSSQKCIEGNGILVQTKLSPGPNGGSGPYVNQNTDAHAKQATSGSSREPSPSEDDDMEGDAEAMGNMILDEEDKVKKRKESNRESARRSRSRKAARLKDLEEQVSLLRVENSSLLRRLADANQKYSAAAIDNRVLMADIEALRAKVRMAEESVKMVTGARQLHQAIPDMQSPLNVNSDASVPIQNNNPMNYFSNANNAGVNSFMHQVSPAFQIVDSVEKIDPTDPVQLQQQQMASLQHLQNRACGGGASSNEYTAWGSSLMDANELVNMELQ
Experiment: protein-binding microarray (RPBM); PBS, 2% BSA, 51.3 ng/ul salmon testes DNA, 50 uM zinc acetate, 200 nM TF, 25 C, 1 h; high values mean tight binding
Conditions: protein: recombinant; tags: N-terminal polyhistidine and DsRed monomer fusion (pET32a); chain copies: 2; label: CyDye5-dUTP incorporated in the synthesized complementary strand; 3' TTTTT single-stranded linker to array surface; dsDNA, one strand shown
In short: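 The binding signal is fluorescence intensity per array feature (arbitrary units). Readings came from an Axon 4000B scanner after a washed, 2% BSA-blocked, double-stranded custom Agilent array had been incubated for 1 h at 25 °C with 200 nM protein and 50 µM zinc acetate. The protein was a Ni–NTA-purified transcription factor fused N-terminally to polyhistidine and DsRed, expressed in E. coli BL21-CodonPlus.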

Sequence	binding signal
TTTTACGTCGTCCGATCCGTCCATTGCTCCATTGCTGACGCGGAGTCACCTAGTGCAG	4630 fluorescence intensity (a.u.)
TGTTTCCTGCTAAAATTGACACGCACTTGATTTAGTGATTCGGAGTCACCTAGTGCAG	14300 fluorescence intensity (a.u.)
TACCACTATCGGAAGTTTTGGTTGTGACGTCCACAATTCCCGGAGTCACCTAGTGCAG	3760 fluorescence intensity (a.u.)
CTCATGTCCCTTTATGCCATGCTGACAAGGCCTCCAAGGACGGAGTCACCTAGTGCAG	4280 fluorescence intensity (a.u.)
CACATGTCAGTATGTCACGAGGCTCGTGACCCCAGGATGTCGGAGTCACCTAGTGCAG	3710 fluorescence intensity (a.u.)
CGTGGCTGTCAAGGGCTCCACGTAAGCATCCCATAAGGCACGGAGTCACCTAGTGCAG	17200 fluorescence intensity (a.u.)
AGCAGACAGATCGTATGCCCCGTCATGGGTACAGAGAAGTCGGAGTCACCTAGTGCAG	6600 fluorescence intensity (a.u.)
TCTGTGTGCAAAGAAAATGATGTCACTTTCTGTTTGTCCACGGAGTCACCTAGTGCAG	15900 fluorescence intensity (a.u.)
ACACAAAGTGGGCTCCACCGGAGGGAGCGCCACGACGGCACGGAGTCACCTAGTGCAG	4540 fluorescence intensity (a.u.)
TAAGTGGTTCACCGCCATGTGTAAGTCAGATTATCCACATCGGAGTCACCTAGTGCAG	3550 fluorescence intensity (a.u.)
GCGCCTCTACACCGCGCTCGTCATCCTTCCGCCGCCGCTCCGGAGTCACCTAGTGCAG	5300 fluorescence intensity (a.u.)
CATAAAAGGTGGCATTGACTCACGAACCCTGCGACTGCGTCGGAGTCACCTAGTGCAG	5300 fluorescence intensity (a.u.)
GGGGTACCGCAGCATGGACGACTACTACGATACGCTTGACCGGAGTCACCTAGTGCAG	31900 fluorescence intensity (a.u.)
TTTGCATCTGCATCTATTTGGACCGGTCCAGCCCATCTCACGGAGTCACCTAGTGCAG	3230 fluorescence intensity (a.u.)
AGTTGAGCTCCTTGTCATTGATGAAGCTGCTGCTATTCCACGGAGTCACCTAGTGCAG	3740 fluorescence intensity (a.u.)
TTTAGAATACTGCTCATACGTCAGTAACAAAGTCACACGACGGAGTCACCTAGTGCAG	3880 fluorescence intensity (a.u.)
TCTCGGCAGAAACTGTCACTGACATGTGGTCCCATTCTCTCGGAGTCACCTAGTGCAG	3170 fluorescence intensity (a.u.)
TGCAGCAGGAGATCGATCGATCGATCGATCCAACCGAATGCGGAGTCACCTAGTGCAG	3260 fluorescence intensity (a.u.)
TTTGGATACATGGAACGGGTGCATTGGGTTGCCTGCCTCACGGAGTCACCTAGTGCAG	4090 fluorescence intensity (a.u.)
TGCTGCTCTCGCGCGCTGTGCGGTTGTCACACACACTTTTCGGAGTCACCTAGTGCAG	4080 fluorescence intensity (a.u.)
GCTGCTGCTGCTTGCTCTTGCTCTTGCTGCTGGGTGGAGTCGGAGTCACCTAGTGCAG	20400 fluorescence intensity (a.u.)

2 entries from above, in markdown.

| Sequence | binding signal |
| --- | --- |
| TACCACTATCGGAAGTTTTGGTTGTGACGTCCACAATTCCCGGAGTCACCTAGTGCAG | 3760 fluorescence intensity (a.u.) |
| CTCATGTCCCTTTATGCCATGCTGACAAGGCCTCCAAGGACGGAGTCACCTAGTGCAG | 4280 fluorescence intensity (a.u.) |

Later entries

Sequence	binding signal
CTTAGGGTCGGGAAGGGGAGAGGCGGTGGCGGGCGGCTGACGGAGTCACCTAGTGCAG	3890 fluorescence intensity (a.u.)
GACGACGACGTGGCCTCCATCTGCACCGTCGGTTGCCTCACGGAGTCACCTAGTGCAG	6420 fluorescence intensity (a.u.)
AACCATGTCACTGCTCTAAACTCGCCTTTTGTTGACTTGGCGGAGTCACCTAGTGCAG	3690 fluorescence intensity (a.u.)
CTGAACATGTTGTTCAGTTGGCCTCGTTTTCTCACCTTTGCGGAGTCACCTAGTGCAG	3190 fluorescence intensity (a.u.)
CCAGCACAGCCGACGGCGATCTCTTGTGTTTCCAGCGTGACGGAGTCACCTAGTGCAG	3590 fluorescence intensity (a.u.)
AGGATGGATACATGGAAGGAAGGATGGTGGTACATGACATCGGAGTCACCTAGTGCAG	3800 fluorescence intensity (a.u.)
CCAGGCGTCGCCGAGCTCTGCTCCGTCGTGTCAGCTTCTTCGGAGTCACCTAGTGCAG	4590 fluorescence intensity (a.u.)
GCGCGGGAACGCCATGCAGGGGAGAACGTGGCGGGAGCGGCGGAGTCACCTAGTGCAG	4290 fluorescence intensity (a.u.)
CCTCCTCGTTGGCATCTTGATGACCTGCGATACCCTTGCCCGGAGTCACCTAGTGCAG	3440 fluorescence intensity (a.u.)
GGTTAGGCCACGTGGGTGATCGTGTCTGCCTCAAGTCTCTCGGAGTCACCTAGTGCAG	10900 fluorescence intensity (a.u.)
CGGCGACGACGTGGAGCGCGGCAGGAAGTAGCCACGCGCACGGAGTCACCTAGTGCAG	5120 fluorescence intensity (a.u.)
CGGCACGGTGGGCCAACCCGGCACGACATGAACGTCAGGGCGGAGTCACCTAGTGCAG	3450 fluorescence intensity (a.u.)
GTCTACCAACCATGACAATGATCAATTGGGTGTGACTGAGCGGAGTCACCTAGTGCAG	5010 fluorescence intensity (a.u.)
AAATAAGCAAACTACAGTGACTACTCTGCACTGGCAGTTTCGGAGTCACCTAGTGCAG	3190 fluorescence intensity (a.u.)
ACCATATGGCGATATTTATTAATTAGCCTGACAAGACGTACGGAGTCACCTAGTGCAG	23500 fluorescence intensity (a.u.)
AGCCGTCAAGCCCCGTTGGCTGACCCATCTCATATCTTCACGGAGTCACCTAGTGCAG	4110 fluorescence intensity (a.u.)
AATTATAACAATATGCACGGCCTCACACACCACAACATCCCGGAGTCACCTAGTGCAG	3220 fluorescence intensity (a.u.)
ATTCCATCCCAAAACAGTGTGGTGGTGTGGCTTGGATGGGCGGAGTCACCTAGTGCAG	3320 fluorescence intensity (a.u.)
AGCGCTGACCGTGAGTCCGTGAAGCGTCAGTGCCCAATGGCGGAGTCACCTAGTGCAG	5040 fluorescence intensity (a.u.)
CAGATTTAAGCAGGTCATCTCCACTGCACATACTACTCAACGGAGTCACCTAGTGCAG	3240 fluorescence intensity (a.u.)
GAGAGAGAGGGAGGCGGAGACCCGTCACCATCGCACCACACGGAGTCACCTAGTGCAG	3980 fluorescence intensity (a.u.)
